Results as given in paper PMC4235626.
These are yes or no findings as the source states them, for the method shown. In cells and extracts the contact can be indirect. Some binding calls cover weakened binding; strength is not graded here.

Protein sequences, listed by entry. Tags and fused reporters are not part of them. Lines headed by an entry give the natural chain unless they say otherwise; changes in a name come on top. Chains listed by the source or under a name are the forms on record and can include a tag or linker. Residues count along the entry.
lamin A, endogenous (the lamin A band of lamin A/C) (human (endogenous in IMR90)) (P02545, residues 1-646): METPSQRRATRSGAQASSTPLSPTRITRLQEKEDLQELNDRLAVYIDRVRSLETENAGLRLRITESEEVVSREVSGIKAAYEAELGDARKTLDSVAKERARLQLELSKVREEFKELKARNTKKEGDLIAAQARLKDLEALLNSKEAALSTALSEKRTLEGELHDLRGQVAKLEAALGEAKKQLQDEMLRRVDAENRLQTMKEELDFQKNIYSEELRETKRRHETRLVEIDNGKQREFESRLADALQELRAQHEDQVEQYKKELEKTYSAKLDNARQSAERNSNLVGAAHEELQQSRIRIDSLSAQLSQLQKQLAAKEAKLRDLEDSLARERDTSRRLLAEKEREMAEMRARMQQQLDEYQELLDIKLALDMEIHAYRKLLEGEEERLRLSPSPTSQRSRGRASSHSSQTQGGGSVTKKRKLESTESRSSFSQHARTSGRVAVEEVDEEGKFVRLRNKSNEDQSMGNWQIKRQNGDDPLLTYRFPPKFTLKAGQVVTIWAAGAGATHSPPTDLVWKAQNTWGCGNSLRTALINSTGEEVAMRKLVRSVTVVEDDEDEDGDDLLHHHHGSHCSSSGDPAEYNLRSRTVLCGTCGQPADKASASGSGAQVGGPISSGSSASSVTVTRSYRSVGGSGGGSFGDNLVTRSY
lamin C, endogenous (the lamin C band of lamin A/C) (P02545-2, form named): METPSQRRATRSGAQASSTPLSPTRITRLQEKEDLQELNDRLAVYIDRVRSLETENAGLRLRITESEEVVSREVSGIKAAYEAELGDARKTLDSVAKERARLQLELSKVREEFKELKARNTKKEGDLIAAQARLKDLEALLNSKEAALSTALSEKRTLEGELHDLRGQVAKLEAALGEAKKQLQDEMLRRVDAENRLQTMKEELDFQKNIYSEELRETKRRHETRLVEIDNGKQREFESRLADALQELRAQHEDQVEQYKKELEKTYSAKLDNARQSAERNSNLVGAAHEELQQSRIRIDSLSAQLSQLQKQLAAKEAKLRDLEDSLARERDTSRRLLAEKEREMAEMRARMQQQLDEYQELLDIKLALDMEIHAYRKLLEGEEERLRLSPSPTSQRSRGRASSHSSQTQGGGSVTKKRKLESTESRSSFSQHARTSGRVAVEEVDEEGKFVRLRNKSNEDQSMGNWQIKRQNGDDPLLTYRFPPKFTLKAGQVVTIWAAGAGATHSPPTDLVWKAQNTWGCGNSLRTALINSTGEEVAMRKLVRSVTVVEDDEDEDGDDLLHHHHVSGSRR
UniProt Q15554: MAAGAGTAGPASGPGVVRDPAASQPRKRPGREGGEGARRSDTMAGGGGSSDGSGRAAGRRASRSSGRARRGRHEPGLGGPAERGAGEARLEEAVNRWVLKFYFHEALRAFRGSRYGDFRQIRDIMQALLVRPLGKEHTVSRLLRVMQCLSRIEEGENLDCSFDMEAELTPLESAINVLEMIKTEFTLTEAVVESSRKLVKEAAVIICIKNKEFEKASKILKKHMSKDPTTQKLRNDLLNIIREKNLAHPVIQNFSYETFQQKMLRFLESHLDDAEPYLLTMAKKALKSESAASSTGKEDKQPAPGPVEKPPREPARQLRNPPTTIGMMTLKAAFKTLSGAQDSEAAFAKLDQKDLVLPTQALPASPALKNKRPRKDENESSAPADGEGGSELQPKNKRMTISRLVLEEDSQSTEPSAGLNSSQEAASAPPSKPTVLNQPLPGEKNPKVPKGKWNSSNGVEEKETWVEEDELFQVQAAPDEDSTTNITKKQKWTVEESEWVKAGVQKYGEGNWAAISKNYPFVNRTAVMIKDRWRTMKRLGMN
UniProt P54274: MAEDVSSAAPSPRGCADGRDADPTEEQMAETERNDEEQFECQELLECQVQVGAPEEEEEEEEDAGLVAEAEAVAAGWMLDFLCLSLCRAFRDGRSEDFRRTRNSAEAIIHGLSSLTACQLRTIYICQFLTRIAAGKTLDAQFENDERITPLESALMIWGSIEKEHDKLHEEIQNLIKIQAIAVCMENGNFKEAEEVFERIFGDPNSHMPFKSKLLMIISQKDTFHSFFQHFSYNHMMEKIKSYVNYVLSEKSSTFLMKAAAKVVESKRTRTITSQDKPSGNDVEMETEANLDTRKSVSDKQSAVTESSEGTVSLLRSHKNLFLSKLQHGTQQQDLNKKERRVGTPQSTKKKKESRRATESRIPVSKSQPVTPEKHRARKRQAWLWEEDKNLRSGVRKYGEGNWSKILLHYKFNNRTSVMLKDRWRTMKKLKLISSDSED

How the values were obtained:
[1] = biological target: lamin A, endogenous (the lamin A band of lamin A/C) (human (endogenous in IMR90)) (UniProt P02545); experiment: co-IP; endogenous lamin A/C precipitated from IMR90 lysate with goat anti-lamin A/C and protein G Dynabeads; lysis in 1% Triton X-100, 50 mM Tris pH 7.4, 300 mM NaCl, 5 mM EDTA; 4 °C; blot for TRF2 or GFP
[2] = biological target: lamin C, endogenous (the lamin C band of lamin A/C) (human (endogenous in IMR90)) (UniProt P02545); experiment: as above
[3] = biological target: telomere repeat-binding factor 2 (TRF2), endogenous (human (endogenous in IMR90)) (UniProt Q15554); experiment: co-IP; endogenous TRF2 precipitated from IMR90 lysate with rabbit anti-TRF2 and protein G Dynabeads; lysis in 1% Triton X-100, 50 mM Tris pH 7.4, 300 mM NaCl, 5 mM EDTA; 4 °C; blot for lamin A/C or GFP

binding [1]	binding [2]	binding [3]	Substance
no binding	no binding		wild-type GFP-TRF1 (from UniProt P54274 1-439)
		binds	lamin C, endogenous (the lamin C band of lamin A/C) (from UniProt P02545-2 1-572)
